Converted amounts (≈) assume the structure as drawn.
Test system: Candida albicans
Experiment: Antimicrobial activity against Candida albicans high-persister mutants after 48 hrs by broth microdilution method
Format: functional

With C[C@@H]1[C@H](O)[C@@H](C)/C=C/C=C/C=C/C=C/C=C/C=C/C=C/[C@H](O[C@@H]2O[C@H](C)[C@@H](O)[C@H](N)[C@@H]2O)C[C@@H]2O[C@](O)(C[C@@H](O)C[C@@H](O)[C@H](O)CC[C@@H](O)C[C@@H](O)CC(=O)O[C@H]1C)C[C@H](O)[C@H]2C(=O)O [AMPHOTERICIN B] the MIC was 0.2 µg/mL (≈ 0.216 µM).

Reference: ChEMBL document CHEMBL1212748, “Patients with long-term oral carriage harbor high-persister mutants of Candida albicans” (2010)
